Some entries share one result that the patent states for a list of compounds.
What was measured:
[1] = system: LLCPK cells conditionally expressing hLAT1
[2] = target: T1, hLAT1 (Homo sapiens, UniProt Q01650); test: LAT1 uptake inhibition assay, radiolabeled competition uptake with [3H]-Gabapentin; assay type: cell-based
T1 construct: expressed in transfected cells; host or cells: LLCPK cells, tetracycline/doxycycline-inducible, boosted with sodium butyrate

Protein sequences, listed by entry. Tags and fused reporters are not part of them. Lines headed by an entry give the natural chain unless they say otherwise; changes in a name come on top.
UniProt Q01650: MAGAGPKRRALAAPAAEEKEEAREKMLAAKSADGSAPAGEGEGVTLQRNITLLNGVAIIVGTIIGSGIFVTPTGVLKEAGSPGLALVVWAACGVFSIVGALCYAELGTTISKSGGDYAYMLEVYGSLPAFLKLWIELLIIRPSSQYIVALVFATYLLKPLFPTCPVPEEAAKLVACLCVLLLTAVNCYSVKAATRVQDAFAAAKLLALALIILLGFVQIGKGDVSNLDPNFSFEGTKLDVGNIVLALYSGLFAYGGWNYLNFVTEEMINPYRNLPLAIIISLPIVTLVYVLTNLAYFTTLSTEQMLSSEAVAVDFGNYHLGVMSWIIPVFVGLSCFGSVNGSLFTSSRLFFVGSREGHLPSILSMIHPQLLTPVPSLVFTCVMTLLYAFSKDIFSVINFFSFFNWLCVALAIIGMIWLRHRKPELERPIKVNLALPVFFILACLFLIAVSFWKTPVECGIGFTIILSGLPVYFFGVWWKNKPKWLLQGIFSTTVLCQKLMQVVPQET

| SMILES | LC50 selectivity ratio (low LAT1/high LAT1) [1] | also measured |
| --- | --- | --- |
| Cc1ccc(N(CCCl)CCCl)cc1CC(N)CC(=O)O (racemic) [Compound 3, 3-Amino-4-[5-[bis(2-chloroethyl)amino]-2-methyl-phenyl]butanoic Acid] | – | reduction of percent surviving cells in cells expressing LAT1 compared to cells not expressing LAT1 [1]: at least 25%; specific uptake of radiolabeled gabapentin (percent of specific GP uptake) [2]: less than 10%; specific uptake of radiolabeled gabapentin into LAT1-expressing cells (in words) [2]: inhibited |
| Cc1cc(N(CCCl)CCCl)ccc1CC(N)CC(=O)O (centres unmarked) [Compound 4, 3-Amino-4-[4-[bis(2-chloroethyl)amino]-2-methyl-phenyl]butanoic Acid] | – | reduction of percent surviving cells in cells expressing LAT1 compared to cells not expressing LAT1 [1]: at least 25%; specific uptake of radiolabeled gabapentin into LAT1-expressing cells (in words) [2]: inhibited |
| Cc1ccc(N(CCCl)CCCl)cc1C[C@H](N)CC(=O)O [Compound 5, (3S)-3-Amino-4-[5-[bis(2-chloroethyl)amino]-2-methyl-phenyl]butanoic Acid] | greater than 5 | – |
| COc1ccc(N(CCCl)CCCl)cc1C[C@H](N)CC(=O)O [Compound 7, (3S)-3-Amino-4-[5-[bis(2-chloroethyl)amino]-2-methoxy-phenyl]butanoic Acid] | greater than 5 | – |
| CCc1ccc(N(CCCl)CCCl)cc1C[C@H](N)CC(=O)O [Compound 40, (3S)-3-amino-4-[5-[bis(2-chloroethyl)amino]-2-ethyl-phenyl]butanoic acid] | greater than 5 | – |
| CCOc1ccc(N(CCCl)CCCl)cc1C[C@H](N)CC(=O)O [Compound 42, (3S)-3-amino-4-[5-[bis(2-chloroethyl)amino]-2-ethoxy-phenyl]butanoic acid] | greater than 5 | – |
| CC(C)Oc1ccc(N(CCCl)CCCl)cc1C[C@H](N)CC(=O)O [Compound 43, (3S)-3-amino-4-[5-[bis(2-chloroethyl)amino]-2-isopropoxy-phenyl]butanoic acid] | greater than 5 | – |
| Cc1ccc(N(CCCl)CCCl)c(C[C@H](N)CC(=O)O)c1 [Compound 50, (3S)-3-amino-4-[2-[bis(2-chloroethyl)amino]-5-methyl-phenyl]butanoic acid] | greater than 5 | – |
| COc1ccc(N(CCCl)CCCl)c(C[C@H](N)CC(=O)O)c1 [Compound 51, (3S)-3-amino-4-[2-[bis(2-chloroethyl)amino]-5-methoxy-phenyl]butanoic acid] | greater than 5 | – |
| N[C@H](CC(=O)O)Cc1cc(CO)ccc1N(CCCl)CCCl [Compound 52, (3S)-3-amino-4-[2-[bis(2-chloroethyl)amino]-5-(hydroxymethyl)phenyl]butanoic acid] | greater than 5 | – |
| NCC1(CC(=O)O)CCCCC1 [gabapentin, reference compound] | – | specific uptake of radiolabeled gabapentin (percent of specific GP uptake) [2]: less than 10% |

Reference: patent publication US10017459B2, “β-substituted β-amino acids and analogs as chemotherapeutic agents and uses thereof” (Quadriga Biosciences, Inc., priority 2015, dated 2018)
